From publication PMC10064996
Results are given in words; binding and its absence hold for the method and conditions named. In cells and extracts the contact can be indirect. Some entries that bind do so weakly or less than the wild type. Sequences can lack the tags named with a protein.

Target: T1, FHY3-cLUC (UniProt Q9LIE5)
T1 sequence: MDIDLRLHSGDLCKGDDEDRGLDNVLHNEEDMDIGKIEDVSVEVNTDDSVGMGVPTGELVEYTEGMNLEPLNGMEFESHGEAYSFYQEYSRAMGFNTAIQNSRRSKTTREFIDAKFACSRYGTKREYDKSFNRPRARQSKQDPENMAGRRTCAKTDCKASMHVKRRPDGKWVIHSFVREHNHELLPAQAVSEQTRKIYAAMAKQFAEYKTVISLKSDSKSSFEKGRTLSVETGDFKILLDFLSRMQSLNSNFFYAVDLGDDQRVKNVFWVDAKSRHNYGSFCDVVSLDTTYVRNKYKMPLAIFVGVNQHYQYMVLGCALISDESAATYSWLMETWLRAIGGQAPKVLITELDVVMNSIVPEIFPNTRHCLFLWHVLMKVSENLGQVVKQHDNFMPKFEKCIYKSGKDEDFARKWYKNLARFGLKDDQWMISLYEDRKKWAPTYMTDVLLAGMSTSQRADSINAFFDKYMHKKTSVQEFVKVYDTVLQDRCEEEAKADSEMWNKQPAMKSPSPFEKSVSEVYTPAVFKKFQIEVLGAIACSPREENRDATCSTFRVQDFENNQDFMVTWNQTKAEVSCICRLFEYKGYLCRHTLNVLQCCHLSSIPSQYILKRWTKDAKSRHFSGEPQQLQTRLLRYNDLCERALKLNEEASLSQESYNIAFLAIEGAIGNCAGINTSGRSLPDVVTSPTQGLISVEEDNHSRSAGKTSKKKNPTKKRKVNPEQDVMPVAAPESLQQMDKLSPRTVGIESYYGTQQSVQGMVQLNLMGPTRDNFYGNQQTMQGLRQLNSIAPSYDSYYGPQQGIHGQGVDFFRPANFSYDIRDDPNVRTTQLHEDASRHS
Test: split reporter; luciferase complementation imaging (LCI); nLUC and cLUC constructs, Agrobacterium mixed in equal amounts and injected into tobacco leaves; 1 mM luciferin, CCD imaging

B1: SPL3-nLUC (protein, UniProt P93015 1-131)
chain: MSMRRSKAEGKRSLRELSEEEEEEEETEDEDTFEEEEALEKKQKGKATSSSGVCQVESCTADMSKAKQYHKRHKVCQFHAKAPHVRISGLHQRFCQQCSRFHALSEFDEAKRSCRRRLAGHNERRRKSTTD
binding: binds
